{"source": "paper PMC7015924", "binders": {"B1": {"name": "Gtsf1/Asterix (Arx) (protein, UniProt Q8SWX0 1-167)", "chain": "MVYCPYNKEHKMLRKKLQQHILKCRVIYKDTVELMVCPFNSSHLIPEPQFFQHTQSCEDRNIIVHYQTSAPAVLSEDTRHAKIESEENWDDDESVPDYDPQVYCSRANIVREPNGLFPAQRRAFIEQEKRRHFGEDYEEEKKPRKAKARADLRPTPYEHRRPYSRRQ"}}, "key": {"[1]": {"biological_target": "T1, FLAG-tagged slicer-Piwi (Piwi K617H/A625S/V653E/K818H mutant) (Drosophila melanogaster) (UniProt Q9VKM1)", "T1 sequence": "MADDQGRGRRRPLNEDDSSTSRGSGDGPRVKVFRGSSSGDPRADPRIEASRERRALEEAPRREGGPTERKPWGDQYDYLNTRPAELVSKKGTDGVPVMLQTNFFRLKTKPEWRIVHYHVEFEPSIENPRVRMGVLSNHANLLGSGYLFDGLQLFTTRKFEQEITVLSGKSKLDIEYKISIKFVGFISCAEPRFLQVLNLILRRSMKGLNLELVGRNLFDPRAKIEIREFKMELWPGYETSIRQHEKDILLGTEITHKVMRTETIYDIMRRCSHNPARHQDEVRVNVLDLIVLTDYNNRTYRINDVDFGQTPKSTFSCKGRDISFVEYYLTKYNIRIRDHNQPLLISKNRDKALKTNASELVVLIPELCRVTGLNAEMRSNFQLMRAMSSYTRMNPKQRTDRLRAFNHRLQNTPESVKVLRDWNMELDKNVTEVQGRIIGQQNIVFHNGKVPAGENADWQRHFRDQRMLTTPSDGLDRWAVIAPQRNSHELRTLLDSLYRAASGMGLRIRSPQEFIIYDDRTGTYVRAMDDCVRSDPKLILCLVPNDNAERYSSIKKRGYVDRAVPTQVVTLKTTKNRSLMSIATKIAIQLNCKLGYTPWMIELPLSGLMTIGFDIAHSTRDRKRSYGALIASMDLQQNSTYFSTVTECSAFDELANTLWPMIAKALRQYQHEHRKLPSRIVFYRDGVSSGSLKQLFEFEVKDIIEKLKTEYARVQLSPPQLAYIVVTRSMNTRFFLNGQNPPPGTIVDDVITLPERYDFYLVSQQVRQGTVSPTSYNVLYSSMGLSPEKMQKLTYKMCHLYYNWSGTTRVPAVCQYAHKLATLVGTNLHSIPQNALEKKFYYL", "experiment": "co-IP; FLAG-tagged Piwi expressed in endogenous Piwi-depleted OSCs, immunoprecipitated with anti-FLAG beads; lysates and immunoprecipitates analysed by western blotting (anti-Arx)"}, "[2]": {"biological_target": "T2, FLAG-tagged wild-type Piwi (Drosophila melanogaster) (UniProt Q9VKM1)", "T2 sequence": "T1 sequence with H617K, S625A, E653V, H818K", "experiment": "co-IP; FLAG-tagged Piwi expressed in endogenous Piwi-depleted OSCs, immunoprecipitated with anti-FLAG beads; lysates and immunoprecipitates analysed by western blotting (anti-Arx)"}}, "note": "Substitutions are numbered along the chain they refer to. Results are given in words; binding and its absence hold for the method and conditions named. In cells and extracts the contact can be indirect. Some binding calls cover weakened binding; strength is not graded here. Sequences can lack the tags named with a protein."}
{"binder": "B1", "values": [{"measurement": "binding", "setting": "[1]", "value": "binds"}, {"measurement": "binding", "setting": "[2]", "value": "binds"}]}
